This is an account of results in US20120116084A1, “N-TYPE ORGANIC SEMICONDUCTORS INCLUDING AT LEAST TWO 2-DICYANOMETHYLENE-3-CYANO-2,5-DIHYDROFURAN GROUPS” (COMMISARIAT A L'ENERGIE ATOMIQUE ET AUX ENE ALT, priority 2009, published 2012).

Molecules are shown by their SMILES.

This series in a line: Electrical characterization in air of field-effect transistors made with the molecules (bottom-gate bottom-contact geometry). The settings on record: field-effect transistor of Example 6, bottom-gate bottom-contact. As to the method:
Various field-effect transistors were manufactured and especially, by way of example, in the following manner (bottom-gate bottom-contact geometry): • sonication of a chip (1 cm×1 cm) comprising transistors bearing linear or interdigitated units (channel width W of 1000 to 10 000 pm and channel length L of 2 to 200 μm) in acetone for 3 minutes followed by rinsing with isopropanol and drying with argon, • UV/ozone treatment for 45 minutes, • formation of a self-assembled layer in the channels by dipping the chip in a solution of octyltrichlorosilane in toluene (10^−3 M) for 4 hours at 80° C., • deposition of the n-type semiconductor via one of the methods mentioned previously, • release of the electrodes from the transistors by means of an organic solvent belonging to the list presented in the description of the invention, • annealing at 100° C. for 20 minutes, • establishment of the electrical contacts and especially of the bottom-gate electrode, • annealing at 100° C. for 5 minutes.
The field-effect transistors obtained in Example 6 were tested.
Their mobility and Ion/Ioff ratio values, determined by electrical characterization in air, are as follows: • n-type semiconductor of Example 1: 3×10^−5 cm^2. V^−1. s^−1 and 2×10^2, • n-type semiconductor of Example 2: 3×10^−4 cm^2. V^−1. s^−1 and 3×10^3, • n-type semiconductor of Example 3: 1×10^−4 cm^2. V^−1. s^−1 and 8×10^2, • n-type semiconductor of Example 4: 6×10^−3 cm^2. V^−1. s^−1 and 8×10^4, • n-type semiconductor of Example 5: 8×10^−4 cm^2. V^−1. s^−1 and 9×10^2,
For `CC1(C)OC(=C(C#N)C#N)C(C#N)=C1/C=C/c1ccc(-c2c3ccccc3c(-c3ccc(/C=C/C4=C(C#N)C(=C(C#N)C#N)OC4(C)C)cc3)c3ccccc23)cc1` [Example 2], the Ion/Ioff ratio is 3×10^3 and the mobility is 3×10^−4 cm^2. V^−1. s^−1.
In the same order, the values of `CC1(C)OC(=C(C#N)C#N)C(C#N)=C1/C=C/c1ccc(/C=C/C2=C(C#N)C(=C(C#N)C#N)OC2(C)C)c([N+](=O)[O-])c1` [Example 3] are 8×10^2 and 1×10^−4 cm^2. V^−1. s^−1.
In the case of `CC1(C)OC(=C(C#N)C#N)C(C#N)=C1/C=C/c1ccc(/C=C/C2=C(C#N)C(=C(C#N)C#N)OC2(C)C)cc1` [Example 1], the Ion/Ioff ratio was 2×10^2 and the mobility was 3×10^−5 cm^2. V^−1. s^−1.
The like results for `CC1(C)OC(=C(C#N)C#N)C(C#N)=C1/C=C/c1ccc(/C(C#N)=C/c2sc(-c3cc(C#N)c(/C=C(\C#N)c4ccc(/C=C/C5=C(C#N)C(=C(C#N)C#N)OC5(C)C)s4)s3)cc2C#N)s1` [Example 5] were, in that order, 9×10^2 and 8×10^−4 cm^2. V^−1. s^−1.
